Results reported in paper PMC10158027.
No constants are given. Whether binding was seen depends on the method and setting. In cells and extracts the contact can be indirect. Some entries that bind do so weakly or less than the wild type. For part of these data: Where a sequence is shown, tags or fusion partners need not be part of it. One block for each molecule: values may come before it.

Protein sequences, listed by entry. Tags and fused reporters are not part of them.
UniProt Q86U44: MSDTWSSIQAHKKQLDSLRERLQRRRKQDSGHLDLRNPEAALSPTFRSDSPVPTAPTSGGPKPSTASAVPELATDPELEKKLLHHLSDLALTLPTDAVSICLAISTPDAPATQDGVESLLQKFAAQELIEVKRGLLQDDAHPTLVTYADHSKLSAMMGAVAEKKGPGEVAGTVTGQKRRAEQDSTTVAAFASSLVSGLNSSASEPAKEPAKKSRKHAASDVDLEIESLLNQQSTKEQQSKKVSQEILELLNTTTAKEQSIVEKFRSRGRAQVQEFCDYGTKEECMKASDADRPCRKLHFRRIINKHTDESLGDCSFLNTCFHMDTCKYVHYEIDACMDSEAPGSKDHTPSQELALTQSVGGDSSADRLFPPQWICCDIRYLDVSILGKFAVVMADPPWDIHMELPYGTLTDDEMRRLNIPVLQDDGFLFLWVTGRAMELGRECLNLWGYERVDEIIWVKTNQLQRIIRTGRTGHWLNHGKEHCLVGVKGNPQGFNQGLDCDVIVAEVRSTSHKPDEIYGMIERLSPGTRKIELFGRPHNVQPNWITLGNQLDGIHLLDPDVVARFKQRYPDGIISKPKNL

Columns and labels:
[1] = molecular target: T1, USP13 (human (endogenous in OS cells)) (UniProt Q92995); test: co-IP; lysates of OS cells immunoprecipitated with USP13 or METTL3 antibody, immunoblotted with METTL3 or USP13 antibody; endogenous proteins
T1 sequence: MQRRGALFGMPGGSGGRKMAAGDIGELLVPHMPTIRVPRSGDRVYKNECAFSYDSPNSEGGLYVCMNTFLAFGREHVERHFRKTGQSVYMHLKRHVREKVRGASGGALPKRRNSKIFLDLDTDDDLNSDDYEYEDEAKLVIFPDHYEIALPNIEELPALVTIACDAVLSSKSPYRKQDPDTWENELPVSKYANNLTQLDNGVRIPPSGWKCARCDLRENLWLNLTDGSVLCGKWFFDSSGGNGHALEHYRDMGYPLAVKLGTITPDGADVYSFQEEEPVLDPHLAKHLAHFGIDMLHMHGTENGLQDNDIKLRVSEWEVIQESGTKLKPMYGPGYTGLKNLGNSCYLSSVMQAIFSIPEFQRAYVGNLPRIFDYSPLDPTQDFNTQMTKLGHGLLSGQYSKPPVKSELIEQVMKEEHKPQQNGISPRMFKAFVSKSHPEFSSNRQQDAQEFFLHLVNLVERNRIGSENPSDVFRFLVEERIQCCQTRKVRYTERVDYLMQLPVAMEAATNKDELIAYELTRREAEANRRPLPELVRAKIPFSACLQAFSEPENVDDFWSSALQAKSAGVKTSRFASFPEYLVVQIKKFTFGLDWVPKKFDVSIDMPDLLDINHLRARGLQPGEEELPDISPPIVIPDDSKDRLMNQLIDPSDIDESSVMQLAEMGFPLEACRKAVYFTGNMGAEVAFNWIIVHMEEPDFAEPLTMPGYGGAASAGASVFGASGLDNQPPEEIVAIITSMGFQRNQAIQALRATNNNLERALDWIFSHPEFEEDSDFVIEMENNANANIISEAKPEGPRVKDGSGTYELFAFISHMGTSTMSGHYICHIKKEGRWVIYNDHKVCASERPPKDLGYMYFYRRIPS

Flag-tagged USP13 = molecular target: T2, Flag-tagged USP13 (UniProt Q92995); test: co-IP; HEK 293T cells co-transfected with Flag-USP13 and Myc-METTL3 (full length or deletion fragments); lysates immunoprecipitated with Flag or Myc antibody, immunoblotted with anti-Myc and anti-Flag
T2 sequence: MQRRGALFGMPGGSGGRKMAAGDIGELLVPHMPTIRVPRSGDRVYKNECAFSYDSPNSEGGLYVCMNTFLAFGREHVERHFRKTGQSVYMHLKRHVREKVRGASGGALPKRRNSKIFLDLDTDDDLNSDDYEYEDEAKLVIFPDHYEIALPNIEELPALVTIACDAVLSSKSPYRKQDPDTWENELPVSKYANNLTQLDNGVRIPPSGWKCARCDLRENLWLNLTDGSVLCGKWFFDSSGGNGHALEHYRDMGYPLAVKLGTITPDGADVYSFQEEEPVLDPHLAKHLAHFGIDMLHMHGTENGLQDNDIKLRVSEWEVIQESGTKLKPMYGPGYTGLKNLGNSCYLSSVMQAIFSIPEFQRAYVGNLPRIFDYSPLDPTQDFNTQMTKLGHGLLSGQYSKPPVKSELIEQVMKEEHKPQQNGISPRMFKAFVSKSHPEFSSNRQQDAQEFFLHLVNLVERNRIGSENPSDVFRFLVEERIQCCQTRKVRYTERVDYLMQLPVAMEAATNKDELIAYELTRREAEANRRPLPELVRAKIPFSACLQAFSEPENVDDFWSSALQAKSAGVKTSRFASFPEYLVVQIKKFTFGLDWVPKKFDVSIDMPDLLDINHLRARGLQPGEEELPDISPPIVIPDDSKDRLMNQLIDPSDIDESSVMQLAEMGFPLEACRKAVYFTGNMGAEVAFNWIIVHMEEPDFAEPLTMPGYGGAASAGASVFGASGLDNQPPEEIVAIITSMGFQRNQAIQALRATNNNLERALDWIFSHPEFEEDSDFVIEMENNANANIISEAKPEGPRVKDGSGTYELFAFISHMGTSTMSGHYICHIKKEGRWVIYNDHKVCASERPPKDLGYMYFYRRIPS

[2] = molecular target: METTL3 (human (endogenous in OS cells)) (UniProt Q86U44); test: co-IP; lysates of OS cells immunoprecipitated with USP13 or METTL3 antibody, immunoblotted with METTL3 or USP13 antibody; endogenous proteins

binding [1]: binds
Molecule: METTL3 (from UniProt Q86U44 1-580) (enzyme)

binding (Flag-tagged USP13): binds
Molecule: Myc-tagged full-length (FL) METTL3 (from UniProt Q86U44 1-580) (enzyme)

binding [2]: binds
B1: USP13 (enzyme, UniProt Q92995 1-863)
chain: MQRRGALFGMPGGSGGRKMAAGDIGELLVPHMPTIRVPRSGDRVYKNECAFSYDSPNSEGGLYVCMNTFLAFGREHVERHFRKTGQSVYMHLKRHVREKVRGASGGALPKRRNSKIFLDLDTDDDLNSDDYEYEDEAKLVIFPDHYEIALPNIEELPALVTIACDAVLSSKSPYRKQDPDTWENELPVSKYANNLTQLDNGVRIPPSGWKCARCDLRENLWLNLTDGSVLCGKWFFDSSGGNGHALEHYRDMGYPLAVKLGTITPDGADVYSFQEEEPVLDPHLAKHLAHFGIDMLHMHGTENGLQDNDIKLRVSEWEVIQESGTKLKPMYGPGYTGLKNLGNSCYLSSVMQAIFSIPEFQRAYVGNLPRIFDYSPLDPTQDFNTQMTKLGHGLLSGQYSKPPVKSELIEQVMKEEHKPQQNGISPRMFKAFVSKSHPEFSSNRQQDAQEFFLHLVNLVERNRIGSENPSDVFRFLVEERIQCCQTRKVRYTERVDYLMQLPVAMEAATNKDELIAYELTRREAEANRRPLPELVRAKIPFSACLQAFSEPENVDDFWSSALQAKSAGVKTSRFASFPEYLVVQIKKFTFGLDWVPKKFDVSIDMPDLLDINHLRARGLQPGEEELPDISPPIVIPDDSKDRLMNQLIDPSDIDESSVMQLAEMGFPLEACRKAVYFTGNMGAEVAFNWIIVHMEEPDFAEPLTMPGYGGAASAGASVFGASGLDNQPPEEIVAIITSMGFQRNQAIQALRATNNNLERALDWIFSHPEFEEDSDFVIEMENNANANIISEAKPEGPRVKDGSGTYELFAFISHMGTSTMSGHYICHIKKEGRWVIYNDHKVCASERPPKDLGYMYFYRRIPS
